Measured values: article doi:10.1101/241067
These are yes or no findings as the source states them, for the method shown. Some results given as binding are weak or reduced against the parent protein; the word gives no strength.

Sequences of proteins named here, by UniProt entry; tags and fusion partners are left off. A change or cut given only in a name is not applied to a line headed by its entry. Residues count along the entry.
UniProt P40969, residues 47-608: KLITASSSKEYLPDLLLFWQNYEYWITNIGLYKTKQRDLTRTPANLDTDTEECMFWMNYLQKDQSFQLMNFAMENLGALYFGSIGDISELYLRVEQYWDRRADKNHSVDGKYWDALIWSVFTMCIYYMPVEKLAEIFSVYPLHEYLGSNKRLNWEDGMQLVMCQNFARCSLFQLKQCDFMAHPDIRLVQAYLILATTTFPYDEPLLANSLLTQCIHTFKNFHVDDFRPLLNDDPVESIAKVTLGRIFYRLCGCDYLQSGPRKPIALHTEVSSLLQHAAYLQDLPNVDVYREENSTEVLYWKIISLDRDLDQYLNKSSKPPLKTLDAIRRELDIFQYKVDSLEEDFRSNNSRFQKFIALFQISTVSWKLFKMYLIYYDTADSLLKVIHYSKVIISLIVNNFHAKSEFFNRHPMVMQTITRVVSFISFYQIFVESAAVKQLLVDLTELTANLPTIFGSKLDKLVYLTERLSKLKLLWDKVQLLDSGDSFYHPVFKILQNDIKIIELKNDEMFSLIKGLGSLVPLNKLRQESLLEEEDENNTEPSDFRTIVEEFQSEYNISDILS
UniProt P35203: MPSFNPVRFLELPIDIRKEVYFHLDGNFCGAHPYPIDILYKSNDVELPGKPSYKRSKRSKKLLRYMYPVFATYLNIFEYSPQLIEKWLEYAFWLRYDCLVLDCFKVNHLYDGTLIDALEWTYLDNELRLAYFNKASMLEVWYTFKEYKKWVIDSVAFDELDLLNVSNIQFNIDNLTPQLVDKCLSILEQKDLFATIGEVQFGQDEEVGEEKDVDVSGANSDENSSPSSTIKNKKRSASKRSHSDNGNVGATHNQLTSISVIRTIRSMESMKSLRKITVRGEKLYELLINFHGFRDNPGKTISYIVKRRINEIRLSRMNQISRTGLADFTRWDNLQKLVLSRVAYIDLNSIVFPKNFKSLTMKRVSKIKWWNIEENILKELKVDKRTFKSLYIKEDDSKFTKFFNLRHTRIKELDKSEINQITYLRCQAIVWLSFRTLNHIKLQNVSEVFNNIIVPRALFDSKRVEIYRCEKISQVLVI
UniProt P52286: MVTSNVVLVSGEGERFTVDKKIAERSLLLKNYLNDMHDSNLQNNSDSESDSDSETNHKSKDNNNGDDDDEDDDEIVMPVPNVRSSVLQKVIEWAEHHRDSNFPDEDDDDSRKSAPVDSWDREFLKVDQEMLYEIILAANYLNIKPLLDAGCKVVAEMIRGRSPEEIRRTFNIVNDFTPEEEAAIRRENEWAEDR

Columns and labels:
[1] = target: Cep3ΔN (47–608) (S. cerevisiae) (UniProt P40969); assay: cryo-EM structure
[2] = target: Ctf13 (S. cerevisiae) (UniProt P35203); assay: cryo-EM structure

| binding [1] | binding [2] | Substance |
| --- | --- | --- |
| binds | – | Ctf13 (from UniProt P35203 1-478) |
| – | binds | Skp1 (from UniProt P52286 1-194) |
